No constants are given. Whether binding was seen depends on the method and setting. In cells and extracts the contact can be indirect. Some binding calls cover weakened binding; strength is not graded here.

Amino acid sequences for entries named in this document (tags omitted).
UniProt P03496: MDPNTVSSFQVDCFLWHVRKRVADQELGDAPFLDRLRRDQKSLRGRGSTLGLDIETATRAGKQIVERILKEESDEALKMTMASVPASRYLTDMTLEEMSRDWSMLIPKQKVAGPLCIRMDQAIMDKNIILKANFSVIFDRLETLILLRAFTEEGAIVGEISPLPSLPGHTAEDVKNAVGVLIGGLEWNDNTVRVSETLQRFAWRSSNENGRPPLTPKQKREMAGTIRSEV
UniProt Q7Z434: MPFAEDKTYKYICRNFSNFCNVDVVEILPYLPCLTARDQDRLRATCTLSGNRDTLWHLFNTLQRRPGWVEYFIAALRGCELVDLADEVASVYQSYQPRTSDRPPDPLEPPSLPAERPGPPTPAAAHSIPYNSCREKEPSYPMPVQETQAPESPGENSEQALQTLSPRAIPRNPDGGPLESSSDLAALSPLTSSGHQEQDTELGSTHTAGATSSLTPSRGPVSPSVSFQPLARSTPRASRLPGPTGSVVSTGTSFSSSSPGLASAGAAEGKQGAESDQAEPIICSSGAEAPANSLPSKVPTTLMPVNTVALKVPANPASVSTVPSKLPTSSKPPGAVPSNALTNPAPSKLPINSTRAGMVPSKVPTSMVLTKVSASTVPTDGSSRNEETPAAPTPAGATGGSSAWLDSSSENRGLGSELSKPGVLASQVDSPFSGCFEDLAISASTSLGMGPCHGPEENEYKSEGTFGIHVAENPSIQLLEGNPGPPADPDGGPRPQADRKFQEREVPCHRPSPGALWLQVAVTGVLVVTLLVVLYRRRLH

The record followed here is article PMC8537625.

In this assay the target is FLAG-NS1 (IAV PR8 NS1 in p3xFLAG-CMV-14) (influenza A virus A/Puerto Rico/8/1934 (PR8)) (UniProt P03496). Briefly: co-IP.

Consider “HA-tagged wild-type MAVS (from UniProt Q7Z434 1-540)”, for which the binding entry is reported as “binds”.

For the substance “MAVS (MAVS plasmid in chicken DF1 cells) (from UniProt Q7Z434 1-540)”, the binding result was “binds”.
